Test: peptide synthesis
Conditions: conjugation step

Substance	conjugation yield	final HPLC purity (254 nm)	crude HPLC purity (254 nm)
DBCO-2-Amino-1,3-bis(carboxylethoxy)propane(Ahx-W5)2	30.8% yield	–	–
DBCO-Ahx-F′20	20.5% yield	94.4% AUC at 254 nm	–
DBCO-2-Amino-1,3-bis(carboxylethoxy)propane(Ahx-F′10)2	26.8% yield	83.4% AUC at 254 nm	–
DBCO-Ahx-F′5	41.5% yield	>95% AUC at 254 nm	–
DBCO-Ahx-W5	71.9% yield	–	92.6% AUC at 254 nm
DBCO-Ahx-F′10	50.6% yield	–	–
